The target of assay [1] is NIMA-related kinase 7 (NEK7), endogenous, HepG2 mitochondria (human (endogenous in HepG2)) (UniProt Q8TDX7). Kind of assay: co-IP; isolated mitochondrial proteins (at least 1 ug/uL) incubated with NEK7 antibody or IgG 2-4 h at room temperature, magnetic beads at 4 C overnight; western blot; mouse primary hepatocytes, AML-12 cells and HepG2 cells. For orientation: Immunoblotting shows a protein as a band on a membrane.

Protein sequences, listed by entry. Tags and fused reporters are not part of them.
UniProt Q8TDX7: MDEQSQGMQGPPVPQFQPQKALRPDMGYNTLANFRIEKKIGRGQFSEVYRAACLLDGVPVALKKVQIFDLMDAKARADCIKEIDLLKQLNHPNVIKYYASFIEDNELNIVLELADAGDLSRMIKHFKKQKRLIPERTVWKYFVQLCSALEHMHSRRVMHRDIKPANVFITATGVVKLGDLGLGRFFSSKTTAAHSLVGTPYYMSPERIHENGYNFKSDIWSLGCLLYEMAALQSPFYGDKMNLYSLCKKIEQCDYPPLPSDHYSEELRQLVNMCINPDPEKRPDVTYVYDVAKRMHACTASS
UniProt Q9ES74: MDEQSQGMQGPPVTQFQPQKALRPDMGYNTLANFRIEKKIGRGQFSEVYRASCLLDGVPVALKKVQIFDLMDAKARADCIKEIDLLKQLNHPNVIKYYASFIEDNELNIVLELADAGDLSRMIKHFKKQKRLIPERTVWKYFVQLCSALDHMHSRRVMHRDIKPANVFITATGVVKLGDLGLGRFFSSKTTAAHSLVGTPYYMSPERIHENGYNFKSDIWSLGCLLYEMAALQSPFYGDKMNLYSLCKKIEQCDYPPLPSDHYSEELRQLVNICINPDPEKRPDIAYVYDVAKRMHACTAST

Assay [2] addresses human NEK7 recombinant protein (HY-P75935, MCE) (human) (UniProt Q8TDX7). Kind of assay: MST; Monolith NT.115; NEK7 labelled with RED-NHS dye, 25 nM; SDHB titrated, highest concentration 16.5 uM; MO.Affinity Analysis v2.3; both purified.
The target of assay [3] is NIMA-related kinase 7 (NEK7), mouse, endogenous (mouse (endogenous in AML-12 cells and mouse primary hepatocytes)) (UniProt Q9ES74). Kind of assay: co-IP; isolated mitochondrial proteins of AML-12 cells and mouse primary hepatocytes incubated with NEK7 antibody (Abcam) or IgG, agarose magnetic beads, western blotting for NEK7 and SDHB.
Assay [4] deals with NEK7, endogenous, mouse hepatocytes (mouse (endogenous in primary hepatocytes and AML-12)) (UniProt Q9ES74). Kind of assay: co-IP; isolated mitochondrial proteins (at least 1 ug/uL) incubated with NEK7 antibody or IgG 2-4 h at room temperature, magnetic beads at 4 C overnight; western blot; mouse primary hepatocytes, AML-12 cells and HepG2 cells.

Results are given in words; binding and its absence hold for the method and conditions named. For some of these results: In cells and extracts the contact can be indirect. Some results given as binding are weak or reduced against the parent protein; the word gives no strength.

B1: succinate dehydrogenase complex iron sulfur subunit B (SDHB), endogenous, HepG2 mitochondria (protein, UniProt P21912 29-280)
chain: AQTAAATAPRIKKFAIYRWDPDKAGDKPHMQTYEVDLNKCGPMVLDALIKIKNEVDSTLTFRRSCREGICGSCAMNINGGNTLACTRRIDTNLNKVSKIYPLPHMYVIKDLVPDLSNFYAQYKSIEPYLKKKDESQEGKQQYLQSIEEREKLDGLYECILCACCSTSCPSYWWNGDKYLGPAVLMQAYRWMIDSRDDFTEERLAKLQDPFSLYRCHTIMNCTRTCPKGLNPGKAIAEIKKMMATYKEKKASV
B1: the binding entry in assay [1] is recorded as “binds”.

B2: human SDHB recombinant protein (Ag29868, Proteintech) (protein, UniProt P21912 29-280)
chain: B1 chain
As for B2, the binding entry in assay [2] is recorded as “binds”.

B3: succinate dehydrogenase complex iron sulfur subunit B (SDHB), mouse, endogenous (protein, UniProt Q9CQA3 31-282)
chain: AQTAAAAAPRIKKFAIYRWDPDKTGDKPRMQTYEVDLNKCGPMVLDALIKIKNEVDSTLTFRRSCREGICGSCAMNINGGNTLACTRRIDTDLSKVSKIYPLPHMYVIKDLVPDLSNFYAQYKSIEPYLKKKDESQEGKQQYLQSIEDREKLDGLYECILCACCSTSCPSYWWNGDKYLGPAVLMQAYRWMIDSRDDFTEERLAKLQDPFSVYRCHTIMNCTQTCPKGLNPGKAIAEIKKMMATYKEKRALA
Consider B3, for which, in assay [3], the binding result is listed as “binds”.

B4: SDHB, endogenous, mouse hepatocytes (protein, UniProt Q9CQA3 31-282)
chain: B3 chain
Consider B4, for which the binding entry in assay [4] was “binds”.

For the origin of these results see PMC12663309.
